Assay results from PubChem BioAssay AID445 (National Center for Advancing Translational Sciences (NCATS), 2006).
Some of the results follow. Further columns of the screen follow, without active or inactive calls. Most of these compounds were active or inconclusive in the main read-out, so they are no random draw. Words in brackets tell the shape of the fitted curve; partial curves, single points and poor fits give uncertain potencies.

Test: IkB Signaling
Details: ABC-DLBCL IkBa-CBG/CBR dual luciferase ratio (green luciferase fused to IkBa over red control in OCI-Ly3 lymphoma cells), 4 h; measured here: control luc red channel unless noted
In short: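 Curves were fitted separately to fusion (green), unfused (red) and ratio luminescence, then classed by r2, magnitude and activity. Cells: OCI-Ly3, 4 h compound plus doxycycline at 37C; 10 uM MG-132 defined full response.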

Row | Compound | AC50
1 | COc1ccccc1N1CCN(C(=O)CCc2nnc3n(C)c(=O)c4sccc4n23)CC1 | 3.98 µM [falling, partial curve]
2 | Cc1cccc(C(=O)Nc2ccc(C(=O)OCc3cc(=O)n4nc(C5CC5)sc4n3)cc2)c1 | 25.1 µM [rising, single point]
3 | COc1ccc(NC(=O)C2CCCN2S(=O)(=O)c2ccc3c(c2)CCC(=O)N3)cc1Cl (configuration not stated) | 3.98 µM [falling, partial curve]
4 | Cc1nnc(NC(=O)c2ccc3ccccc3c2)o1 | 39.8 µM [rising, single point] [measured here: IkB-luc green channel]
5 | O=C(CCc1ccccc1)Nc1cc(Cl)ccc1O | 10 µM [falling, partial curve]
6 | Cc1ccc(NC(=O)C2CCCN2S(=O)(=O)c2ccc3nc(-c4ccccc4)[nH]c3c2)cc1F (configuration not stated) | 25.1 µM [falling, partial curve]
7 | CCOc1ccc(CCNC(=O)c2cn(C)c3ccc(S(=O)(=O)N4CCOCC4)cc3c2=O)cc1OCC | 0.631 µM [rising, full curve]
8 | Cn1c(=O)c(C#N)c(-c2ccccc2)n2cnnc12 | 7.94 µM [falling, partial curve]
9 | Cc1cccc(Cn2c(C)c(C)c3cc(C(=O)NCc4ccco4)ccc32)c1 | 7.94 µM [rising, partial curve]
10 | COc1ccc2[nH]c(=O)c(CN(C(=O)c3cccc(Cl)c3)c3ccccc3OC)cc2c1 | 31.6 µM [falling, single point]
11 | COc1ccc(S(=O)(=O)NCCc2csc3nc(-c4ccc(Cl)cc4)nn23)cc1C | 3.16 µM [falling, partial curve]
12 | CS(=O)(=O)N1CCc2cc(S(=O)(=O)NCc3ccccc3Cl)ccc21 | 0.0251 µM [falling, full curve, poor fit]
13 | COc1ccc(-c2nc(Cn3c(SCc4cccc(Cl)c4)nc4ccncc43)c(C)o2)cc1 | 10 µM [falling, partial curve]
14 | Cc1ccc(Sc2c(C)nn(C(=O)COc3ccccc3)c2C)cc1 | 15.8 µM [falling, partial curve]
15 | Cc1cccc(-n2c(-c3ccco3)nc3c(cnn3-c3ccccc3C)c2=O)c1 | 39.8 µM [falling, single point]
16 | Cc1ccc(C(c2sc3nc(-c4ccco4)nn3c2O)N2CCOCC2)cc1 (configuration not stated) | 31.6 µM [rising, single point]
17 | COc1ccccc1NC(=O)CSc1nc2ccccc2c(=O)n1CCC(=O)NC1CCCCC1 | 39.8 µM [falling, single point]
18 | COc1cc2c(C#N)c(N3CCN(c4ccccc4OC)CC3)nc(N)c2c(N)n1 | 3.16 µM [falling, full curve]
19 | Cc1nn(C(=O)c2ccccc2)c(C)c1Sc1ccc(Cl)cc1 | 25.1 µM [falling, single point]
20 | Cc1ccc(Cn2nc(C)c(NC(=O)c3cc(-c4ccc(F)cc4)on3)c2C)cc1 | 7.94 µM [falling, partial curve]
21 | CCOc1ccc(NC(=O)Cn2c(=O)oc3cc(S(=O)(=O)NC4CCCC4)ccc32)cc1 | 15.8 µM [falling, partial curve]

Some of the entries so far, field by field:
Cc1cccc(C(=O)Nc2ccc(C(=O)OCc3cc(=O)n4nc(C5CC5)sc4n3)cc2)c1
  AC50: 25.1 µM [rising, single point]
Cc1ccc(NC(=O)C2CCCN2S(=O)(=O)c2ccc3nc(-c4ccccc4)[nH]c3c2)cc1F (configuration not stated)
  AC50: 25.1 µM [falling, partial curve]
CS(=O)(=O)N1CCc2cc(S(=O)(=O)NCc3ccccc3Cl)ccc21
  AC50: 0.0251 µM [falling, full curve, poor fit]
CCOc1ccc(NC(=O)Cn2c(=O)oc3cc(S(=O)(=O)NC4CCCC4)ccc32)cc1
  AC50: 15.8 µM [falling, partial curve]

(next part)

Row | Compound | AC50
22 | O=C1c2ccccc2C(Nc2ccc3c(c2)OCCO3)N1Cc1ccccc1 (configuration not stated) | 10 µM [falling, partial curve]
23 | COc1ccc2cc(CN(CCc3ccccc3)Cc3nnnn3Cc3ccco3)c(=O)[nH]c2c1 | 39.8 µM [falling, single point]
24 | CCc1ccc(NC(=O)C2CCCN(S(=O)(=O)c3ccc4c(c3)CCCN4C(C)=O)C2)cc1 (configuration not stated) | 25.1 µM [falling, single point]
25 | Cc1ccc(-n2ncc(C(=O)N3CCCCC3)c2C2CCN(C(=O)OC(C)(C)C)CC2)cc1C | 12.6 µM [falling, partial curve]
26 | Cc1cccc(OCC(=O)NCC2(N3CCN(C)CC3)CCCCC2)c1C | 1.58 µM [falling, partial curve]
27 | O=c1oc(-c2ccco2)nc2ccccc12 | 25.1 µM [rising, partial curve] [measured here: IkB-luc green channel]
28 | Cc1ccc(NC(=O)c2ccc3snnc3c2)cc1Cl | 0.0501 µM [rising, full curve]
29 | CCc1ccc(S(=O)(=O)c2nnn(-c3ccc(F)cc3)c2N)cc1 | 7.94 µM [falling, single point]
30 | Cc1cccc(NC(=O)Cn2nnc(-c3cccs3)n2)c1C | 12.6 µM [falling, partial curve]
31 | CC(=O)N1CCc2c(sc3c2c(=O)n(-c2ccccc2)c(=O)n3CC(=O)c2ccc(Cl)cc2)C1 | 39.8 µM [falling, single point]
32 | COCCNC(=O)CCn1c(=O)c2cc(OC)c(OC)cc2n(CC(=O)Nc2ccc(F)c(Cl)c2)c1=O | 5.01 µM [falling, partial curve]
33 | O=C(Nc1nnc(C2CC2)s1)C1Cc2ccccc2CN1S(=O)(=O)c1cccs1 (configuration not stated) | 31.6 µM [falling, partial curve]
34 | Cc1cc(C)c(NC(=O)Cn2c(=O)n(-c3cccc(C(F)(F)F)c3)c(=O)c3c(C)c(C)sc32)c(C)c1 | 25.1 µM [falling, single point]
35 | O=C(O)c1ccc(Nc2nc3ccccc3c3nncn23)cc1 | 0.501 µM [falling, full curve]
36 | COc1ccccc1NC(=O)C(Cc1ccccc1)NS(=O)(=O)c1ccc2c(c1)CCN2C(C)=O (configuration not stated) | 12.6 µM [falling, partial curve]
37 | CCc1ccccc1Nc1nn2c(=O)c3ccc(C(=O)NCc4ccc(C)cc4)cc3nc2s1 | 1.58 µM [falling, full curve, poor fit]
38 | CCCCc1nn2c(=O)cc(COC(=O)c3cccc(NC(=O)COc4ccccc4)c3)nc2s1 | 10 µM [falling, partial curve]
39 | CCN(CCCNC(=O)CSc1cc(=O)n(C)c2ccccc12)c1ccccc1 | 7.94 µM [falling, partial curve]
40 | O=C(Nc1ccc(Cl)cc1Cl)c1cc(S(=O)(=O)N2CCC3(CC2)OCCO3)ccc1F | 15.8 µM [falling, partial curve]
41 | COc1cccc(-c2nc(NCCc3c[nH]c4ccc(OC)cc34)c3ccccc3n2)c1 | 3.98 µM [falling, partial curve] [measured here: IkB-luc green channel]
42 | CC(=O)Oc1ccc(NC(=O)C2CCCCC2)c(C(=O)O)c1 | 0.0794 µM [falling, full curve]

Row | Compound | AC50
43 | O=C1CS(=O)(=O)C2(C(=O)Nc3ccccc32)N1c1cccc(Cl)c1 (configuration not stated) | 25.1 µM [falling, partial curve]
44 | CC(C)(C)C(=O)Nc1cc(-c2cccc(Br)c2)nn1-c1ccccc1 | 0.0251 µM [falling, full curve, poor fit]
45 | CC(=O)Oc1ccccc1C(=O)Nc1ncc([N+](=O)[O-])s1 | 0.0398 µM [falling, full curve]
46 | CCOC(=O)c1ccc(NC(=O)CSc2nc3ncc(Br)c(C)c3[nH]2)cc1 | 1.58 µM [falling, full curve]
47 | CCOC(=O)CC(=O)Nc1ccc(Br)cc1C(=O)O | 12.6 µM [falling, partial curve]
48 | COc1ccc(-c2cc3nc(N)cc(=O)n3[nH]2)cc1 | 39.8 µM [rising, partial curve]
49 | COc1ccc(OC)c(-c2oc3ccccc3c(=O)c2O)c1 | 20 µM [falling, single point]
50 | CC(C)c1ccc2oc(-c3ccc(Cl)c(NC(=O)c4cccs4)c3)nc2c1 | 0.2 µM [falling, full curve]
51 | CCOC(=O)N1CCC(Nc2c(N3CCN(c4cccc(C(F)(F)F)c4)CC3)c(=O)c2=O)CC1 | 15.8 µM [falling, partial curve]
52 | Cc1cccc(C)c1OCc1cc(=O)n2c(-c3ccccc3)csc2n1 | 39.8 µM [falling, single point]
53 | CC(=O)C1=C(C)NC(SCC(=O)c2ccc(Cl)cc2)=C(C#N)C1c1ccco1 (configuration not stated) | 15.8 µM [falling, partial curve]
54 | Cc1[nH]ccc2c1[nH]c1cc(=O)ccc12 | 7.94 µM [falling, partial curve]
55 | Cc1ccc(C(=O)Nc2ccc(F)cc2)cc1S(=O)(=O)N1CCCCCC1 | 25.1 µM [falling, partial curve]
56 | CNC(=O)c1cc(Nc2nnc(-c3ccc(O)cc3)c3ccccc23)ccc1OC | 12.6 µM [falling, partial curve]
57 | CC(NC(=O)c1ccccc1NC(=O)c1nsc2ccccc12)c1ccccc1 (configuration not stated) | 0.00631 µM [rising, full curve, poor fit]
58 | CCOC(=O)c1c(-c2ccc(C)o2)csc1NC(=O)CSc1nnc(C)s1 | 25.1 µM [falling, single point]
59 | COc1ccc(-c2cc(C)nc3c(-c4ccc(OC)c(OC)c4)c(C)nn23)cc1 | 25.1 µM [falling, single point]
60 | CCc1nc(N2CCN(C(=O)c3ccco3)CC2)c2oc3ccccc3c2n1 | 10 µM [falling, partial curve]
61 | Cc1cccc(-c2nnn3c2nc(NCCc2ccc(S(N)(=O)=O)cc2)c2cc(Cl)ccc23)c1 | 2.51 µM [falling, full curve]
62 | CS(=O)(=O)N(CC(=O)NCCc1ccccc1)c1cc(C(F)(F)F)ccc1Cl | 25.1 µM [falling, partial curve]
